# Experimental data taken from the supplement of paper PMC12067093, “Discovery and optimisation of a covalent ligand for TRIM25 and its application to targeted protein ubiquitination” (Chemical Science, 2025).
# Some of the results follow.
# Compound: CC1Cc2ccccc2N1C(=O)C1CCCN(C1)C(=O)CCl (mixture of isomers) [TRIM25 ligand 11 (diastereomer mixture)]
# Experiment: probe-labelled cysteine peptide fold change vs DMSO (competition) (log2 fold change); higher = less target engagement (more negative = stronger competition)
# Details: 50 µM; THP-1; incubation time: 4 h
# 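Note: competitive chemoproteomic profiling in live THP-1 cells with an iodoacetamide desthiobiotin (IA-DTB) probe, comparing probe-labelled peptide intensities in compound-treated cells against DMSO-treated controls.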
row,Target,probe-labelled cysteine peptide fold change
1,HDAC4_P56524_777_LAVGCVVELVFK (UniProt P56524),0.213
2,HDAC8_Q9BY41_153_KDEASGFCYLNDAVLGILR (UniProt Q9BY41),0.0504
3,HEATR5B_Q9P2D3_718_SLCHYDDSVLLGSWLQETDHK (UniProt Q9P2D3),-0.0436
4,HERC2_O95714_4308_VACGSAHTLAWSTSK (UniProt O95714),-0.0665
5,HDAC3_O15379_279_GHGECVEYVK (UniProt O15379),0.0441
6,HDAC10_Q969S8_102_EELQALSGQFDAIYFHPSTFHCAR (UniProt Q969S8),-0.172
7,HINT1_P49773_84_CAADLGLNK (UniProt P49773),-0.0398
8,HIF1AN_Q9NWT6_236_CILFPPDQFECLYPYPVHHPCDR (UniProt Q9NWT6),0.0986
9,HDHD2_Q9H0R4_244_INPPPYLTCESFPHAVDHILQHLL (UniProt Q9H0R4),-0.0416
10,HCK_P08631_241_LSVPCMSSK (UniProt P08631),-0.0354
11,HLA-C_P04222_345+364_GGSCSQAASSNSAQGSDESLIACKA (UniProt P04222),-0.356
12,HECA_Q9UBI9_434_ALPVFEQFPLVDGTLFLSPSRHDEIEYDVPCHLQGR (UniProt Q9UBI9),0.382
13,HECTD1_Q9ULT8_1955_DFCEHGTK (UniProt Q9ULT8),0.0886
14,HEATR5B_Q9P2D3_1693_EACTVLGEGGDSGGLIPGK (UniProt Q9P2D3),0.173
15,HINT2_Q9BX68_75_SLPADILYEDQQCLVFR (UniProt Q9BX68),-0.102
16,HELQ_Q8TDG4_149_HATDFATENLCSESIK (UniProt Q8TDG4),-0.000735
17,HDAC10_Q969S8_508_LLCVALGQLDRPPDLAHDGR (UniProt Q969S8),0.0946
18,HGD_Q93099_180_MLVQPNEICVIQR (UniProt Q93099),0.382
19,HK2_P52789_133_GSGTQLFDHIAECLANFMDK (UniProt P52789),-0.083

row,Target,probe-labelled cysteine peptide fold change
1,HECTD4_Q9Y4D8-5_275_LLLLEGGPGSPSCLLGGK (UniProt Q9Y4D8),0.145
2,HCFC1_P51610_149_CYLFGGLANDSEDPK (UniProt P51610),0.173
3,HECTD1_Q9ULT8_487_GHSEVVAILQSPGDWMCPVNK (UniProt Q9ULT8),-0.102
4,HERC4_Q5GLZ8_60_HTVFVLDDGTVYTCGCNDLGQLGHEK (UniProt Q5GLZ8),-0.129
5,HDAC3_O15379_268_LGCFNLSIR (UniProt O15379),-0.0229
6,HDAC9_Q9UKV0_353_CETQTLR (UniProt Q9UKV0),0.0579
7,HMG20B_Q9P0W2_177_GGDCDGFSTFDVPIFTEEFLDQNK (UniProt Q9P0W2),-0.247
8,HDAC6_Q9UBN7_523+539_CLTLTPRPATEAELLTCHSAEYVGHLR (UniProt Q9UBN7),-0.153
9,HAUS6_Q7Z4H7_443_QHNQENGCR (UniProt Q7Z4H7),0.0621
10,HK1_P19367_256_MCINTEWGAFGDDGSLEDIRTEFDREIDR (UniProt P19367),0.383
11,HDAC10_Q969S8_663_MLQCHPHLVA (UniProt Q969S8),0.0418
12,HGS_O14964_185_ACGQIFCGK (UniProt O14964),0.0195
13,HCFC1_P51610_227_KSKLVIYGGMSGCR (UniProt P51610),0.475
14,HDLBP_Q00341_636_RANCEAAR (UniProt Q00341),0.13
15,HIP1_O00291_906_GKFEELMVCSHEIAASTAQLVAASK (UniProt O00291),0.00218
16,HBS1L_Q9Y450_529_LLAMPPNETCTVK (UniProt Q9Y450),0.0298
17,HDDC2_Q7Z4H3_82_LALVHDMAECIVGDIAPADNIPK (UniProt Q7Z4H3),0.121
18,HEATR5B_Q9P2D3_518_TSPEAVSGYSFAMAALLGGVHQCPLGIPHAK (UniProt Q9P2D3),-0.0773
